Data taken from the supplement of paper PMC4371806.
Whole data set: some 2,300 compounds, median “plate-normalized OD600 growth (mean of duplicates)” near 0.29, cut for the lowest 2% near 0.22. This is one part of the list.

Test system: Escherichia coli BW25113
Test: plate-normalized OD600 growth (mean of duplicates) (OD600 (normalized)); higher = more growth (less inhibition)
Conditions: 10 µM
Experimental: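 E. coli BW25113 in LB (100 µl, 96-well, no shaking) was exposed to 10 µM of each compound from a ~30,000-member library and grown at 37°C for 24 h or 15°C for 48 h, in duplicate. Growth was read as OD600 and the duplicate ODs were normalized across screening plates to correct plate-to-plate variation. Hits were >3σ below the mean OD600 at 15°C and <2σ below the mean at 37°C.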

Row | Compound | plate-normalized OD600 growth (temperature: 15°C, 48 h) | plate-normalized OD600 growth (temperature: 37°C, 24 h)
1 | CCOC(=O)c1ccc(-n2sccc2=O)cc1 | 0.219 | 0.645
2 | C#CC1(O)CCN(C(C)(C)C)CC1C (stereo unspecified) | 0.24 | 0.621
3 | COc1ccc(C2C(C(=O)/C=C/c3ccccc3)=C(O)C(=O)N2CCO)cc1 (stereo unspecified) | 0.227 | 0.597
4 | COc1ccc2c(c1OC)CN(C)CCc1cc3c(cc1C(O)C2)OCO3 (stereo unspecified) | 0.242 | 0.617
5 | O=C1CC(Nc2ccccc2)C=C1Nc1ccccc1 (stereo unspecified) | 0.242 | 0.629
6 | Clc1cccc(Cl)c1/C=N/Nc1nncc(-c2ccccc2)n1 | 0.186 | 0.641
7 | Cc1ccccc1NC(=O)c1ccc(NC(=O)C2(C)CCCCC2)cc1 | 0.231 | 0.649
8 | NS(=O)(=O)c1ccc(CCn2c(-c3ccc(S(=O)(=O)N4CCCC4)cc3)csc2=Nc2cccc(C(F)(F)F)c2)cc1 | 0.257 | 0.65
9 | COC(=O)c1ccc(Cl)cc1NS(=O)(=O)c1ccc(OC)c(OC)c1 | 0.232 | 0.623
10 | O=[N+]([O-])c1ccc(Oc2cccc3cccnc23)cc1 | 0.246 | 0.645
11 | O=C(CSCC(=O)OCC(=O)N1CCCCC1)Nc1ccc(Br)cn1 | 0.247 | 0.621
12 | O=C1N=C(N2CCOCC2)S/C1=C\c1ccccn1 | 0.237 | 0.61
13 | N#Cc1c(N)oc(-c2ccco2)c1-c1ccco1 | 0.249 | 0.632
14 | CC(=O)NC1(C(F)(F)F)C(=O)Nc2c1c(=O)[nH]c(=O)n2-c1ccc(Cl)cc1 (stereo unspecified) | 0.241 | 0.651
15 | C/C(=N\NC(=O)Cc1c[nH]c2ccccc12)c1ccc(O)cc1 | 0.246 | 0.613
16 | CCOC(=O)Cn1c(=O)c(C#N)cn(C(C)C)c1=O | 0.266 | 0.643
17 | CC(C)(C)c1ccc(C(=O)n2cnnc2N)cc1 | 0.226 | 0.609
18 | O=C1NC(=O)c2cc(-c3ccc([N+](=O)[O-])cc3)ccc21 | 0.241 | 0.631
19 | CC(=O)Nc1ccc(Sc2nc3ccccc3s2)c(Cl)c1 | 0.252 | 0.563
20 | COc1ccc(C2SCC(=O)N2CCN2CCCCC2)cc1 (stereo unspecified) | 0.238 | 0.618
21 | COc1ccc(/C(C)=N\NC2=NCCCN2)cc1 | 0.214 | 0.597

17 structures already listed, sorted by SMILES length, rising.
Row | Compound | plate-normalized OD600 growth (temperature: 15°C, 48 h) | plate-normalized OD600 growth (temperature: 37°C, 24 h)
2 | C#CC1(O)CCN(C(C)(C)C)CC1C (stereo unspecified) | 0.24 | 0.621
1 | CCOC(=O)c1ccc(-n2sccc2=O)cc1 | 0.219 | 0.645
5 | O=C1CC(Nc2ccccc2)C=C1Nc1ccccc1 (stereo unspecified) | 0.242 | 0.629
17 | CC(C)(C)c1ccc(C(=O)n2cnnc2N)cc1 | 0.226 | 0.609
12 | O=C1N=C(N2CCOCC2)S/C1=C\c1ccccn1 | 0.237 | 0.61
20 | COc1ccc(C2SCC(=O)N2CCN2CCCCC2)cc1 (stereo unspecified) | 0.238 | 0.618
16 | CCOC(=O)Cn1c(=O)c(C#N)cn(C(C)C)c1=O | 0.266 | 0.643
10 | O=[N+]([O-])c1ccc(Oc2cccc3cccnc23)cc1 | 0.246 | 0.645
6 | Clc1cccc(Cl)c1/C=N/Nc1nncc(-c2ccccc2)n1 | 0.186 | 0.641
11 | O=C(CSCC(=O)OCC(=O)N1CCCCC1)Nc1ccc(Br)cn1 | 0.247 | 0.621
15 | C/C(=N\NC(=O)Cc1c[nH]c2ccccc12)c1ccc(O)cc1 | 0.246 | 0.613
4 | COc1ccc2c(c1OC)CN(C)CCc1cc3c(cc1C(O)C2)OCO3 (stereo unspecified) | 0.242 | 0.617
18 | O=C1NC(=O)c2cc(-c3ccc([N+](=O)[O-])cc3)ccc21 | 0.241 | 0.631
9 | COC(=O)c1ccc(Cl)cc1NS(=O)(=O)c1ccc(OC)c(OC)c1 | 0.232 | 0.623
3 | COc1ccc(C2C(C(=O)/C=C/c3ccccc3)=C(O)C(=O)N2CCO)cc1 (stereo unspecified) | 0.227 | 0.597
14 | CC(=O)NC1(C(F)(F)F)C(=O)Nc2c1c(=O)[nH]c(=O)n2-c1ccc(Cl)cc1 (stereo unspecified) | 0.241 | 0.651
8 | NS(=O)(=O)c1ccc(CCn2c(-c3ccc(S(=O)(=O)N4CCCC4)cc3)csc2=Nc2cccc(C(F)(F)F)c2)cc1 | 0.257 | 0.65

Later entries.

Row | Compound | plate-normalized OD600 growth (temperature: 15°C, 48 h) | plate-normalized OD600 growth (temperature: 37°C, 24 h)
22 | Nc1nonc1C(=O)N/N=C/c1cc(Br)cs1 | 0.24 | 0.616
23 | CCN(CC)C1=N/C(=C/c2ccccc2)C(=O)N1c1ccc(Cl)cc1 | 0.224 | 0.61
24 | CC(=O)Nc1cc([N+](=O)[O-])ccc1-n1cc(C)c(C(F)(F)F)n1 | 0.259 | 0.625
25 | CCCCCCCCCCCCCCCC(=O)OC1CC(n2ccc(NC(=O)c3ccccc3)nc2=O)OC1CO (stereo unspecified) | 0.282 | 0.623
26 | CCC(C(=O)Nc1ccc(C(F)(F)F)cc1)c1ccccc1 (stereo unspecified) | 0.277 | 0.609
27 | CC(=O)Oc1cccc(NC(=O)CC2Sc3ccccc3NC2=O)c1 (stereo unspecified) | 0.252 | 0.622
28 | COC(=O)c1ccc(Nc2nc(-c3ccc(Br)cc3)c(C)s2)cc1 | 0.244 | 0.583
29 | Cc1nc(Nc2ccc(F)cc2)c2oc3ccccc3c2n1 | 0.245 | 0.613
30 | Nc1nnc(CC(=O)N/N=C/c2ccccc2F)s1 | 0.255 | 0.625
31 | COc1ccc(OC)c(NC(=O)c2ccc(N3C(=O)/C(=C/c4ccc(Cl)cc4)N=C3c3ccccc3)cc2)c1 | 0.216 | 0.634
32 | COc1cccc(C(=O)N/N=C(/C)c2ccccc2O)c1 | 0.253 | 0.612
33 | CSc1cccc(NC(=O)CCCC(=O)O)c1 | 0.253 | 0.612
34 | [O-]c1n[n+](-c2cccc(F)c2)no1 | 0.251 | 0.626
35 | Cc1cc(C)n2nc(S(=O)(=O)Nc3ccccc3[N+](=O)[O-])nc2n1 | 0.246 | 0.625
36 | O=C(Nc1ccc(O)cc1)c1c(O)c2ccccc2[nH]c1=O | 0.234 | 0.603
37 | CC1(C)CC(=O)C2=C(C1)OC(N)=C([N+](=O)[O-])C2c1ccccc1 (stereo unspecified) | 0.263 | 0.625
38 | COc1ccc(CCCC(=O)N/N=C/c2ccc(O)cc2O)cc1 | 0.239 | 0.631
39 | O=C(O)CCNC(=S)Nc1cccc(C(F)(F)F)c1 | 0.252 | 0.632
40 | NC(N)=NS(=O)(=O)c1ccc(NC(=O)C2CCCCC2)cc1 | 0.256 | 0.628
41 | O=C(O)CCCc1nc(-c2cccc([N+](=O)[O-])c2)no1 | 0.238 | 0.616
42 | O=C1C=C(Cl)CC(c2ccc(C(F)(F)F)cc2)C1 (stereo unspecified) | 0.243 | 0.607

Row | Compound | plate-normalized OD600 growth (temperature: 15°C, 48 h) | plate-normalized OD600 growth (temperature: 37°C, 24 h)
43 | c1ccc(OCCOc2ccccn2)nc1 | 0.25 | 0.612
44 | CC(=O)NC1=NN(C(C)=O)C(C)(CS(=O)(=O)c2ccc(Br)cc2)S1 (stereo unspecified) | 0.261 | 0.62
45 | O=C(COc1ccc(Cl)cc1Cl)NS(=O)(=O)c1ccccc1 | 0.222 | 0.637
46 | CCn1nc(C)c(N=Cc2ccc(N(C)C)c(Br)c2)c1C | 0.246 | 0.64
47 | CC(=O)NN(C)c1ccc(C(F)(F)F)cc1[N+](=O)[O-] | 0.236 | 0.612
48 | COC(=O)C1=C(C)N(c2ccc(Cl)cc2)/C(=C/c2sccc2C)C1=O | 0.251 | 0.644
49 | CCOP(=O)(OCC)C(Nc1nc2ccc(C)cc2s1)c1cccc(C)c1 (stereo unspecified) | 0.251 | 0.618
50 | CC(=O)N/C(=C/c1ccc2c(c1)OCO2)C(=O)O | 0.266 | 0.654
51 | COc1ccc(CNCC2COc3ccccc3O2)cc1OC (stereo unspecified) | 0.26 | 0.638
52 | FC(F)(F)c1ccc2[nH]c(=S)[nH]c2c1 | 0.248 | 0.623
53 | O=C(O)c1cccc(N=Cc2ccc(OCc3ccc(F)cc3)cc2)c1 | 0.225 | 0.684
54 | C(=N\Nc1nc2ccccc2s1)/c1ccc(Sc2nc3ccccc3s2)o1 | 0.249 | 0.62
55 | O=c1c2cc3c(=O)n(CC4CCCO4)c(=O)c3cc2c(=O)n1CC1CCCO1 (stereo unspecified) | 0.259 | 0.619
56 | NC(=O)CCSCCC(N)=O | 0.248 | 0.614
57 | O=C(NCc1ccco1)C1CC(=O)N(c2ccccc2)C1 (stereo unspecified) | 0.259 | 0.609
58 | Nc1ncnc2c1nc(N/N=C/c1ccc(O)cc1)n2C1OC(CO)C(O)C1O (stereo unspecified) | 0.242 | 0.624
59 | Cc1cc(=O)oc(C)c1C(=O)OCC(=O)c1ccccc1 | 0.244 | 0.622
60 | CCCS(=O)(=O)c1c(S(=O)(=O)CCC)c2cnccn2c1C(=O)c1ccc(F)cc1 | 0.241 | 0.612
61 | O=C(CC1=C(Sc2ccccc2)c2ccccc2C1Cc1ccccc1)Nc1ccc(OC(F)(F)Cl)cc1 (stereo unspecified) | 0.233 | 0.611
62 | FC(F)(F)Oc1ccc(NC(=S)NNc2ncc(Cl)cc2Cl)cc1 | 0.255 | 0.607
63 | CN(C)c1ccc(-c2nc(-c3ccccc3)c(-c3ccc(Oc4ccccc4)cc3)[nH]2)cc1 | 0.24 | 0.628
